# Test results from US20140235877A1, “COMPOUNDS, METHODS OF PREPARATION AND USE THEREOF FOR TREATING CANCER” (Hong Kong Baptist University, priority 2013, published 2014).
# System: HepG2
# Assay: MTT cell viability assay, HepG2
# Format: cell-based, human
# Description: Curcumin and paclitaxel are used as the positive control.
structure (smiles),measurement,setting,value
"COc1c(O)c(O)c2c(=O)c3c(CC=C(C)C)c(CC=C(C)C)c(O)c(O)c3oc2c1CC=C(C)C [Compound A, 1,2,5,6-tetrahydroxy-3-methoxy-4,7,8-tri(3-methylbut-2-enyl)-xanthone]",OD value,"HepG2, compound A 0.8 μg/mL",2.252
same,OD value,"HepG2, compound A 1.6 μg/mL",2.243
same,OD value,"HepG2, compound A 3.125 μg/mL",2.076
same,OD value,"HepG2, compound A 6.25 μg/mL",0.996
same,OD value,"HepG2, compound A 12.5 μg/mL",0.5955
same,OD value,"HepG2, compound A 25 μg/mL",0.5715
same,OD value,"HepG2, compound A 50 μg/mL",0.7495
same,OD value,"HepG2, compound A 100 μg/mL",0.6285
